Literature values in PMC6927578 (Archiv der Pharmazie, 2016).

System: HDAC activity from HeLa cell lysates
Details: previously reported, included for comparison ref 29; cited from earlier work

With `O=C(CCCCCCC(=O)Nc1ccccc1)NO` [SAHA, suberoylanilide hydroxamic acid] as the compound, how does the IC50 read?
The IC50 was 0.09 ± 0.004 µM.
